Publication PMC7896848
These are yes or no findings as the source states them, for the method shown. Binding seen in cells or lysates may run through a third protein. Some entries that bind do so weakly or less than the wild type.

Amino acid sequences for entries named in this document (tags omitted).
UniProt Q13464: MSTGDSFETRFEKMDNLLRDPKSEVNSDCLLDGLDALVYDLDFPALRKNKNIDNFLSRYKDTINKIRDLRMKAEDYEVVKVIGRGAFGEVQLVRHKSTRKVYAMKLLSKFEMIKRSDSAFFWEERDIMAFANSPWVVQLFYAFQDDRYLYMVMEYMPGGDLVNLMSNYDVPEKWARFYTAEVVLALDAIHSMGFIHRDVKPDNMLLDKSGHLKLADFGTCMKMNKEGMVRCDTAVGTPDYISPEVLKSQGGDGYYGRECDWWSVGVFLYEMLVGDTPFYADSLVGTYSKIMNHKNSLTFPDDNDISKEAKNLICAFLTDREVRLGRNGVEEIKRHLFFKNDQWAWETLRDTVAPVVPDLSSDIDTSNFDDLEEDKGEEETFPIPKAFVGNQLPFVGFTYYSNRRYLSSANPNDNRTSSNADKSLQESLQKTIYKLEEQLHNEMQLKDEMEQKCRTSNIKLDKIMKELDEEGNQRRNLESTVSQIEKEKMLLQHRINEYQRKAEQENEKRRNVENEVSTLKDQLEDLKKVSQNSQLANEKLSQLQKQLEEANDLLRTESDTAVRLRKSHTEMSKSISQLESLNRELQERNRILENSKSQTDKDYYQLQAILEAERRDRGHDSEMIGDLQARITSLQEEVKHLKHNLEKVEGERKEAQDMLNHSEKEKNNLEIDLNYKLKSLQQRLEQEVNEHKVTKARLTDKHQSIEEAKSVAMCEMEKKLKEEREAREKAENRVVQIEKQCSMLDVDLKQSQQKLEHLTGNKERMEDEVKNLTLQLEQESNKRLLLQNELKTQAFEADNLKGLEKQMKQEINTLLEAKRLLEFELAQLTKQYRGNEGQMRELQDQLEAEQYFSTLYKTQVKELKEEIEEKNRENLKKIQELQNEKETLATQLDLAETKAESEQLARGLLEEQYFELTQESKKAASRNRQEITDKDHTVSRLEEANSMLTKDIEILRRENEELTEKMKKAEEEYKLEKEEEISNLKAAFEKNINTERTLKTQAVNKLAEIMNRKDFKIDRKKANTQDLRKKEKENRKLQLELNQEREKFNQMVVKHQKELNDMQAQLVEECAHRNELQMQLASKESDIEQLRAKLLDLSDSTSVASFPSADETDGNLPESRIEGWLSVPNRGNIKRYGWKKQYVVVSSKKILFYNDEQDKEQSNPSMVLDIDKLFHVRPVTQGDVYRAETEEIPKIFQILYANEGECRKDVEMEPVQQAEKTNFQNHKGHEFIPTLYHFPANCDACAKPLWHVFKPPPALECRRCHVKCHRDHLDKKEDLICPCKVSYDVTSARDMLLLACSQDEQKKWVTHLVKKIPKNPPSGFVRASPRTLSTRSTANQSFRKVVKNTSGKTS
UniProt P26038: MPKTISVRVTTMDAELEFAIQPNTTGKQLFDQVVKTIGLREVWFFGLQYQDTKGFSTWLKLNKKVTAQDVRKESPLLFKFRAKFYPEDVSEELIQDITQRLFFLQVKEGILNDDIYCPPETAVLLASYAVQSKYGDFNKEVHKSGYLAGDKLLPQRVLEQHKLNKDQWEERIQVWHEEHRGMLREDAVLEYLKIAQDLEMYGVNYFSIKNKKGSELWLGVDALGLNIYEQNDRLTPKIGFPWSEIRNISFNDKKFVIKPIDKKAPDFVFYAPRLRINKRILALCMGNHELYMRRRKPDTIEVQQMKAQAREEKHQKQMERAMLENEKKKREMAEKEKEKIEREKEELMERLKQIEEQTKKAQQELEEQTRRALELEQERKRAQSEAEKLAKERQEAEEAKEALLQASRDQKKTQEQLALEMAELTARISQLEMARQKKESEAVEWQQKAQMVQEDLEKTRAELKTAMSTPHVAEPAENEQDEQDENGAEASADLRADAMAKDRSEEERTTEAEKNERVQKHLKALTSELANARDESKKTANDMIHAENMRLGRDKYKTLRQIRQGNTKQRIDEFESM

Biological target: Rock1 (human (endogenous in HMECs)) (UniProt Q13464)
Assay: co-IP; HMEC lysates (modified RIPA buffer with protease and phosphatase inhibitors), immunoprecipitation with antibodies to Rock1, protein G beads, Western blot; cells treated with or without LPS (24 h)

- binding: binds
Substance: phosphorylated moesin (p-MSN) (from UniProt P26038 1-577)
